Assay results published in publication PMC9243173.

Chains of the proteins cited; added tags and fusions are not shown. Lines headed by an entry give the natural chain unless they say otherwise; changes in a name come on top.
UniProt Q9H6Q4: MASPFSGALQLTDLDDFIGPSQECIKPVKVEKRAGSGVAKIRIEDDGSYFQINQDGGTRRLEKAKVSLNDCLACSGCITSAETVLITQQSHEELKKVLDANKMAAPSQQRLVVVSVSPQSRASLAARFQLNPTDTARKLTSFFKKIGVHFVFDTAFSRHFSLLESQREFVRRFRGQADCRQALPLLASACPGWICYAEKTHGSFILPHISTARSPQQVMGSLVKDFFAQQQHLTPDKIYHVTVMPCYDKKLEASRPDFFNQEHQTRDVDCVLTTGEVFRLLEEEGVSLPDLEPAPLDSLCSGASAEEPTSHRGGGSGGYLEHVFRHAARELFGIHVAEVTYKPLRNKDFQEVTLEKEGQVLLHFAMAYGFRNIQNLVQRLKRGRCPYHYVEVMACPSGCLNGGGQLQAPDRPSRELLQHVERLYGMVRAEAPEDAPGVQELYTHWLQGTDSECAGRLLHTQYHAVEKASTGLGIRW

What was measured:
[1] = biological target: 3HA-3FLAG-CIAO3, wildtype (human) (UniProt Q9H6Q4); assay: affinity purification with mass spectrometry; anti-HA beads on lysates of Flp-In 293 cells expressing the 3HA-3FLAG-tagged bait (NUBP2, wildtype or mutant CIAO3); targeted proteomics assay (parallel reaction monitoring) of CIA components and substrates; CIAO3 purifications normalised to CIAO3; wildtype CIAO3 cells also treated with FAC or DFO for 8 h
[2] = biological target: T1, 3HA-3FLAG-tagged NUBP2 (nucleotide-binding protein 2) (human) (UniProt Q9Y5Y2); assay: as above
T1 sequence: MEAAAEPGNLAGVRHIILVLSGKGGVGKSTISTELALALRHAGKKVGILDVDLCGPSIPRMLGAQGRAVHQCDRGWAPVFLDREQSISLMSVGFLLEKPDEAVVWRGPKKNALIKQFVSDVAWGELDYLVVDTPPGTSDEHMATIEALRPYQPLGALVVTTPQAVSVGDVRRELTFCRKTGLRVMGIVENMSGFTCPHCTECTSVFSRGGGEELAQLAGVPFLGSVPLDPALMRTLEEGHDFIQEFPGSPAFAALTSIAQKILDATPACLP

[3] = biological target: 3HA-3FLAG-CIAO3, wildtype (human) (UniProt Q9H6Q4); assay: affinity purification with mass spectrometry; anti-HA beads on lysates of Flp-In 293 cells expressing the 3HA-3FLAG-tagged bait (NUBP2 or CIAO3); 100 mM Tris-HCl pH 8.0, 150 mM NaCl, 5% glycerol, 0.1% NP-40, 4 °C; glycine elution; shotgun (data-dependent) proteomics, spectral counts or MS1 label-free quantification; CIAO3 cells treated with 100 μg/ml FAC or 100 μM DFO for 8 h
[4] = biological target: T1, 3HA-3FLAG-tagged NUBP2 (nucleotide-binding protein 2) (human); assay: as above
[5] = biological target: 3HA-3FLAG-CIAO3-C190S/C395S (human) (UniProt Q9H6Q4); assay: affinity purification with mass spectrometry; anti-HA beads on lysates of Flp-In 293 cells expressing the 3HA-3FLAG-tagged bait (NUBP2, wildtype or mutant CIAO3); targeted proteomics assay (parallel reaction monitoring) of CIA components and substrates; CIAO3 purifications normalised to CIAO3; wildtype CIAO3 cells also treated with FAC or DFO for 8 h
[6] = biological target: 3HA-3FLAG-CIAO3-C71S/C190S/C395S (human) (UniProt Q9H6Q4); assay: as above

| Binder | binding [1] | binding [2] | binding [3] | binding [4] | binding [5] | binding [6] |
| --- | --- | --- | --- | --- | --- | --- |
| nucleotide-binding protein 1 (NUBP1) (protein, UniProt P53384 1-320) MEEVPHDCPGADSAQAGRGASCQGCPNQRLCASGAGATPDTAIEEIKEKMKTVKHKILVLSGKGGVGKSTFSAHLAHGLAEDENTQIALLDIDICGPSIPKIMGLEGEQVHQSGSGWSPVYVEDNLGVMSVGFLLSSPDDAVIWRGPKKNGMIKQFLRDVDWGEVDYLIVDTPPGTSDEHLSVVRYLATAHIDGAVIITTPQEVSLQDVRKEINFCRKVKLPIIGVVENMSGFICPKCKKESQIFPPTTGGAELMCQDLEVPLLGRVPLDPLIGKNCDKGQSFFIDAPDSPATLAYRSIIQRIQEFCNLHQSKEENLISS | binds | binds | binds | binds | – | – |
| CDKAL1 (protein, UniProt Q5VV42 1-579) MPSASCDTLLDDIEDIVSQEDSKPQDRHFVRKDVVPKVRRRNTQKYLQEEENSPPSDSTIPGIQKIWIRTWGCSHNNSDGEYMAGQLAAYGYKITENASDADLWLLNSCTVKNPAEDHFRNSIKKAQEENKKIVLAGCVPQAQPRQDYLKGLSIIGVQQIDRVVEVVEETIKGHSVRLLGQKKDNGRRLGGARLDLPKIRKNPLIEIISINTGCLNACTYCKTKHARGNLASYPIDELVDRAKQSFQEGVCEIWLTSEDTGAYGRDIGTNLPTLLWKLVEVIPEGAMLRLGMTNPPYILEHLEEMAKILNHPRVYAFLHIPVQSASDSVLMEMKREYCVADFKRVVDFLKEKVPGITIATDIICGFPGETDQDFQETVKLVEEYKFPSLFINQFYPRPGTPAAKMEQVPAQVKKQRTKDLSRVFHSYSPYDHKIGERQQVLVTEESFDSKFYVAHNQFYEQVLVPKNPAFMGKMVEVDIYESGKHFMKGQPVSDAKVYTPSISKPLAKGEVSGLTKDFRNGLGNQLSSGSHTSAASQCDSASSRMVLPMPRLHQDCALRMSVGLALLGLLFAFFVKVYN | – | binds | – | binds | binds | binds |
| DNA2 (protein, UniProt P51530 1-1060) MEQLNELELLMEKSFWEEAELPAELFQKKVVASFPRTVLSTGMDNRYLVLAVNTVQNKEGNCEKRLVITASQSLENKELCILRNDWCSVPVEPGDIIHLEGDCTSDTWIIDKDFGYLILYPDMLISGTSIASSIRCMRRAVLSETFRSSDPATRQMLIGTVLHEVFQKAINNSFAPEKLQELAFQTIQEIRHLKEMYRLNLSQDEIKQEVEDYLPSFCKWAGDFMHKNTSTDFPQMQLSLPSDNSKDNSTCNIEVVKPMDIEESIWSPRFGLKGKIDVTVGVKIHRGYKTKYKIMPLELKTGKESNSIEHRSQVVLYTLLSQERRADPEAGLLLYLKTGQMYPVPANHLDKRELLKLRNQMAFSLFHRISKSATRQKTQLASLPQIIEEEKTCKYCSQIGNCALYSRAVEQQMDCSSVPIVMLPKIEEETQHLKQTHLEYFSLWCLMLTLESQSKDNKKNHQNIWLMPASEMEKSGSCIGNLIRMEHVKIVCDGQYLHNFQCKHGAIPVTNLMAGDRVIVSGEERSLFALSRGYVKEINMTTVTCLLDRNLSVLPESTLFRLDQEEKNCDIDTPLGNLSKLMENTFVSKKLRDLIIDFREPQFISYLSSVLPHDAKDTVACILKGLNKPQRQAMKKVLLSKDYTLIVGMPGTGKTTTICTLVRILYACGFSVLLTSYTHSAVDNILLKLAKFKIGFLRLGQIQKVHPAIQQFTEQEICRSKSIKSLALLEELYNSQLIVATTCMGINHPIFSRKIFDFCIVDEASQISQPICLGPLFFSRRFVLVGDHQQLPPLVLNREARALGMSESLFKRLEQNKSAVVQLTVQYRMNSKIMSLSNKLTYEGKLECGSDKVANAVINLRHFKDVKLELEFYADYSDNPWLMGVFEPNNPVCFLNTDKVPAPEQVEKGGVSNVTEAKLIVFLTSIFVKAGCSPSDIGIIAPYRQQLKIINDLLARSIGMVEVNTVDKYQGRDKSIVLVSFVRSNKDGTVGELLKDWRRLNVAITRAKHKLILLGCVPSLNCYPPLEKLLNHLNSEKLIIDLPSREHESLCHILGDFQRE | – | binds | – | – | – | – |
| nucleotide-binding protein 2 (NUBP2), endogenous (protein, UniProt Q9Y5Y2 1-271) MEAAAEPGNLAGVRHIILVLSGKGGVGKSTISTELALALRHAGKKVGILDVDLCGPSIPRMLGAQGRAVHQCDRGWAPVFLDREQSISLMSVGFLLEKPDEAVVWRGPKKNALIKQFVSDVAWGELDYLVVDTPPGTSDEHMATIEALRPYQPLGALVVTTPQAVSVGDVRRELTFCRKTGLRVMGIVENMSGFTCPHCTECTSVFSRGGGEELAQLAGVPFLGSVPLDPALMRTLEEGHDFIQEFPGSPAFAALTSIAQKILDATPACLP | binds | – | binds | – | – | – |

These are yes or no findings as the source states them, for the method shown. Binding seen in cells or lysates may run through a third protein. A yes stands for co-enrichment or nearness to the bait. Other partners may have been found. For some assays here: Sequences can lack the tags named with a protein.
